For at least one entry, the source does not settle the construct or the ends of the probe. For some assays here: The comparison behind a weaker result is the experiment's own reference, which may not be listed here. For some assays here: Where cells or extracts were used, other partners may take part. For some assays here: At least one verdict was read from the data and is not stated in words by the source. For some assays here: Tags and fusion partners may be left off the protein sequences shown. For some assays here: The direction of at least one scale is not stated here.
Legend:
NONO full-length = NONO full-length (UniProt Q15233); assay: EMSA; conditions: annealed without KCl; NONO(53-312) EMSA: 20 mM HEPES pH 7.5, 5.7 mM Tris-HCl, 113 mM KCl, 10% glycerol, 62 mM L-proline, 1% EMPIGEN BB, 0.12 mM EDTA, 4 C 1 h, 10 nM RNA; commercial protein; residues 1-471; protein details: MYC/DDK; label: 3' Cy5
NONO(53-312) = NONO(53-312) (UniProt Q15233); assay: EMSA; conditions: annealed without KCl; NONO(53-312) EMSA: 20 mM HEPES pH 7.5, 5.7 mM Tris-HCl, 113 mM KCl, 10% glycerol, 62 mM L-proline, 1% EMPIGEN BB, 0.12 mM EDTA, 4 C 1 h, 10 nM RNA; recombinant protein; residues 53-312; protein details: His tag removed by TEV; label: 3' Cy5
[1] = molecular target: T1, PSPC1 endogenous (Homo sapiens (HEK293T)) (UniProt Q8WXF1); assay: pull-down, TMT mass spectrometry; conditions: pulldown: 10 mM HEPES pH 7.0, 200 mM KCl, 1% Triton X-100, 1 mM MgCl2, 1 mM DTT, 4 C, washes to 1.6 M KCl; protein in an extract; label: 3' biotin
T1 sequence (looked up, limits assumed): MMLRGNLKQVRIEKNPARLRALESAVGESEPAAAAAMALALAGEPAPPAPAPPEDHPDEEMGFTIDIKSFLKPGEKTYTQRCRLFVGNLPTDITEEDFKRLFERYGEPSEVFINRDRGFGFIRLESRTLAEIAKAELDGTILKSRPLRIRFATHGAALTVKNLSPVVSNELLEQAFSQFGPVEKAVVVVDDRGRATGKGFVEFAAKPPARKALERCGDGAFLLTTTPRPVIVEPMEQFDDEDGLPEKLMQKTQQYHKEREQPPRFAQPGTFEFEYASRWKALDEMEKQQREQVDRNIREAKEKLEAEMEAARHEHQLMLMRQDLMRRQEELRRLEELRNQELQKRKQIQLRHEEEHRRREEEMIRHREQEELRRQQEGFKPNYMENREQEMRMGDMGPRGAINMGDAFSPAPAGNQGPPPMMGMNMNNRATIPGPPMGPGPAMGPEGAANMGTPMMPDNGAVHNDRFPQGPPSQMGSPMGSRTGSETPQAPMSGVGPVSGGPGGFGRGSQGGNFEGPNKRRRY

By UniProt entry, the sequences of proteins in these tests, tags left out. Where a name states a change or a piece, a line headed by the entry shows the natural chain unless it says otherwise. Residues count along the entry.
UniProt Q15233, 53-312: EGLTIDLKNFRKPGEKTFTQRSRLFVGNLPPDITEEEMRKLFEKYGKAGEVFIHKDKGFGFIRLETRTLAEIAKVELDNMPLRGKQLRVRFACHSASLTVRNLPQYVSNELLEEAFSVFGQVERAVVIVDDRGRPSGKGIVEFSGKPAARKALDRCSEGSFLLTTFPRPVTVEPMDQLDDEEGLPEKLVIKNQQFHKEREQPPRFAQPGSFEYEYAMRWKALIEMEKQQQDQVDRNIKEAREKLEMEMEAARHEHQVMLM
UniProt P23246: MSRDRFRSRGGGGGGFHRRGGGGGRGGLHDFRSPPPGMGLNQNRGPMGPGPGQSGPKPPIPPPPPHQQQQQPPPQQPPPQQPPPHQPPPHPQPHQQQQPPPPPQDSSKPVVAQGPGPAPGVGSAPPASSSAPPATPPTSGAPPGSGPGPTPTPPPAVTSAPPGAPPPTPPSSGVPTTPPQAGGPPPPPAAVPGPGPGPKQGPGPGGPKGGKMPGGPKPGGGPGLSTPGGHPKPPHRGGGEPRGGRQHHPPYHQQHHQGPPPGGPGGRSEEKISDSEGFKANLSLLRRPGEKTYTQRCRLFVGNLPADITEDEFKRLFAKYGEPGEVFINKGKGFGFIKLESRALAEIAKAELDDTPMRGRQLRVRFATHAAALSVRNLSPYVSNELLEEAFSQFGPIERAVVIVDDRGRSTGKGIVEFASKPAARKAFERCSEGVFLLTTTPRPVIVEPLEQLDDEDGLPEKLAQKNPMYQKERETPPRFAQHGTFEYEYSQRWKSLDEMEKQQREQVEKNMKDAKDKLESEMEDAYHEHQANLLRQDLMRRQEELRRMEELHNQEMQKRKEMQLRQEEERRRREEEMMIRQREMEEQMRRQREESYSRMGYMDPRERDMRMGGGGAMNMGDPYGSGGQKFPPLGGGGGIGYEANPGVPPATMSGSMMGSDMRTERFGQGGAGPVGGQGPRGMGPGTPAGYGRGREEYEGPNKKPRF

[2] = molecular target: NONO endogenous (Homo sapiens (HEK293T)) (UniProt Q15233); assay: pull-down, TMT MS and western blot; conditions: pulldown: 10 mM HEPES pH 7.0, 200 mM KCl, 1% Triton X-100, 1 mM MgCl2, 1 mM DTT, 4 C, washes to 1.6 M KCl; protein in an extract; label: 3' biotin
[3] = molecular target: SFPQ endogenous (Homo sapiens (HEK293T)) (UniProt P23246); assay: pull-down, TMT MS and western blot; conditions: pulldown: 10 mM HEPES pH 7.0, 200 mM KCl, 1% Triton X-100, 1 mM MgCl2, 1 mM DTT, 4 C, washes to 1.6 M KCl; protein in an extract; label: 3' biotin
[4] = molecular target: NONO endogenous (Homo sapiens (HEK293T)) (UniProt Q15233); assay: pull-down, western blot; conditions: pulldown: 10 mM HEPES pH 7.0, 200 mM KCl, 1% Triton X-100, 1 mM MgCl2, 1 mM DTT, 4 C, washes to 1.6 M KCl; protein in an extract; label: 3' biotin
[5] = molecular target: T1, PSPC1 endogenous (Homo sapiens (HEK293T)); assay: pull-down, western blot; conditions: pulldown: 10 mM HEPES pH 7.0, 200 mM KCl, 1% Triton X-100, 1 mM MgCl2, 1 mM DTT, 4 C, washes to 1.6 M KCl; protein in an extract; label: 3' biotin
[6] = molecular target: SFPQ endogenous (Homo sapiens (HEK293T)) (UniProt P23246); assay: pull-down, western blot; conditions: pulldown: 10 mM HEPES pH 7.0, 200 mM KCl, 1% Triton X-100, 1 mM MgCl2, 1 mM DTT, 4 C, washes to 1.6 M KCl; protein in an extract; label: 3' biotin
[7] = molecular target: hnRNP K endogenous (Homo sapiens (HEK293T)) (UniProt P61978); assay: pull-down, western blot; conditions: pulldown: 10 mM HEPES pH 7.0, 200 mM KCl, 1% Triton X-100, 1 mM MgCl2, 1 mM DTT, 4 C, washes to 1.6 M KCl; protein in an extract; label: 3' biotin

Sequence	binding signal (ratio over beads) [1]	binding result [2]	binding result [3]	other results
GGGAGGGAGGGAGGG [NEAT1_22619 non-G-quadruplex]	–	–	–	binding result (NONO full-length): binds more weakly; binding result (NONO(53-312)): binds more weakly
GGGUGCAGGGCUGCAGGAGGGCCGGGAGGG [NEAT1_425, biotin]	4.62	binds	binds	–
GGGAGGGAGGGAGGG [NEAT1_22619, biotin]	4.06	binds	binds	–
CCCCGGCCCCGGCCCCGGCCCCGG [Antisense (CCCCGG)4, biotin]	–	–	–	binding result [4]: binds more weakly; binding result [5]: binds more weakly; binding result [6]: binds more weakly; binding result [7]: binds
GGGGCCGGGGCCGGGGCCGGGGCC [(GGGGCC)4 non-G-quadruplex]	–	–	–	binding result (NONO(53-312)): binds more weakly
GGGGCCGGGGCCGGGGCCGGGGCC [Sense (GGGGCC)4 G-quadruplex, biotin]	–	–	–	binding result [4]: binds; binding result [5]: binds; binding result [6]: binds; binding result [7]: binds more weakly
GGGAAGGGGAUGGGGAUUGUGGG [NEAT1_3226, biotin]	4.77	binds	binds	–
GCGAGUGUGUGAGACGUCGC [Scrambled, biotin]	2.2	binds more weakly	binds more weakly	–

Reference: publication PMC7367201
